{"source": "PubChem BioAssay AID1671195 (Yale University, 2021)", "purpose": "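Genes whose knockdown alters LDL uptake in liver cancer cells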 (primary screen)", "cells": "human Huh7 hepatoma cells", "reagent": "siRNA pool against human genes, 18 nM", "time to read-out": "about 2 to 2.5 days of knockdown, then 8 h LDL uptake", "treatment": "DiI-labelled LDL at 30 µg/ml for 8 h, in lipoprotein-deficient serum medium", "detection": "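Fluorescent LDL signal imaged in cells, scaled to the plate median, robust z-score for each replicate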", "scale": "robust z-score: higher = more LDL uptake after knockdown", "active means": "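a gene counts as active if at least two replicate z-scores exceed ±2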", "note": "Shown is one part, drawn at random, of about 22,000 reagents tested. About 1,510 of them (6.9%) count as active. 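Active includes knockdowns raising or lowering LDL uptake; positive z-scores mean more uptake, negative mean less.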 A number with no mark means an inactive call. Reagent sequences are not shown."}
{"gene symbol":"POLR2H","robust z-score, replicate 1":0.98,"robust z-score, replicate 2":0.865,"robust z-score, replicate 3":0.557}
{"gene symbol":"CORO2B","robust z-score, replicate 1":-1.03,"robust z-score, replicate 2":-1.83,"robust z-score, replicate 3":-2.01}
{"gene symbol":"CEP76","robust z-score, replicate 1":-1.45,"robust z-score, replicate 2":-0.59,"robust z-score, replicate 3":-0.553}
{"gene symbol":"TRIM69","robust z-score, replicate 1":-1.72,"robust z-score, replicate 2":-1.38,"robust z-score, replicate 3":-1.18}
{"gene symbol":"PANK1","robust z-score, replicate 1":1.35,"robust z-score, replicate 2":0.96,"robust z-score, replicate 3":1.36}
{"gene symbol":"CTAGE10P","robust z-score, replicate 1":0.29,"robust z-score, replicate 2":0.119,"robust z-score, replicate 3":0.0528}
{"gene symbol":"NECAP1","robust z-score, replicate 1":3.16,"robust z-score, replicate 2":-2.16,"robust z-score, replicate 3":0.934}
{"gene symbol":"PLAAT1","robust z-score, replicate 1":0.469,"robust z-score, replicate 2":-0.392,"robust z-score, replicate 3":-0.255}
{"gene symbol":"ATRNL1","robust z-score, replicate 1":1.51,"robust z-score, replicate 2":1.94,"robust z-score, replicate 3":1.69}
{"gene symbol":"TMEM54","robust z-score, replicate 1":-0.733,"robust z-score, replicate 2":0.557,"robust z-score, replicate 3":-0.211}
{"gene symbol":"UBE2M","robust z-score, replicate 1":0.918,"robust z-score, replicate 2":0.448,"robust z-score, replicate 3":-0.568}
{"gene symbol":"LOC389786 (retired record)","robust z-score, replicate 1":0.0664,"robust z-score, replicate 2":0.286,"robust z-score, replicate 3":-0.206}
{"gene symbol":"ASL","robust z-score, replicate 1":0.477,"robust z-score, replicate 2":-0.582,"robust z-score, replicate 3":0.693}
{"gene symbol":"BST1","robust z-score, replicate 1":-0.223,"robust z-score, replicate 2":-0.663,"robust z-score, replicate 3":-0.439}
{"gene symbol":"TUBA4B","robust z-score, replicate 1":2.88,"robust z-score, replicate 2":0.379,"robust z-score, replicate 3":0.558}
{"gene symbol":"GRHL2","robust z-score, replicate 1":-0.0792,"robust z-score, replicate 2":-0.394,"robust z-score, replicate 3":-0.428}
{"gene symbol":"MORN2","robust z-score, replicate 1":0.831,"robust z-score, replicate 2":0.174,"robust z-score, replicate 3":-0.0499}
{"gene symbol":"TCP11","robust z-score, replicate 1":0.216,"robust z-score, replicate 2":-0.0871,"robust z-score, replicate 3":0.948}
{"gene symbol":"RNF133","robust z-score, replicate 1":-0.577,"robust z-score, replicate 2":-0.0551,"robust z-score, replicate 3":0.86}
{"gene symbol":"BTF3L4","robust z-score, replicate 1":0.3,"robust z-score, replicate 2":-0.233,"robust z-score, replicate 3":0.386}
{"gene symbol":"SLC25A32","robust z-score, replicate 1":0.643,"robust z-score, replicate 2":0.432,"robust z-score, replicate 3":0.559}
{"gene symbol":"LOC441622 (retired record)","robust z-score, replicate 1":0.451,"robust z-score, replicate 2":1.47,"robust z-score, replicate 3":0.296}
{"gene symbol":"ERMP1","robust z-score, replicate 1":0.789,"robust z-score, replicate 2":0.613,"robust z-score, replicate 3":1.2}
{"gene symbol":"ZNF713","robust z-score, replicate 1":-0.82,"robust z-score, replicate 2":-0.941,"robust z-score, replicate 3":-1.23}

3 entries from above, sorted by “robust z-score, replicate 2”, descending.
{"gene symbol":"MORN2","robust z-score, replicate 1":0.831,"robust z-score, replicate 2":0.174,"robust z-score, replicate 3":-0.0499}
{"gene symbol":"RNF133","robust z-score, replicate 1":-0.577,"robust z-score, replicate 2":-0.0551,"robust z-score, replicate 3":0.86}
{"gene symbol":"TCP11","robust z-score, replicate 1":0.216,"robust z-score, replicate 2":-0.0871,"robust z-score, replicate 3":0.948}
